Measured values taken from PubChem BioAssay AID2685 (National Center for Advancing Translational Sciences (NCATS), 2010).
Screen size: about 320,000 compounds; about 2,100 (0.66%) were called active. Inconclusive results, whose numbers are uncertain, are shown with a selection of clear calls. The call rests on the fitted dose curve; in most records, active means well fitted inhibition curve with a large enough effect in the signal ratio, with a control signal flat (not every such curve was filed as active); inconclusive means small, poorly fitted or top-dose-only effect, or effect the other way, or a change in a side signal; inactive means flat fitted curve, though single readings scatter; the % refers to the signal ratio. Where the call is inconclusive, the potency comes from a doubtful curve fit.

Assay: qHTS Assay for Lipid Storage Modulators in Drosophila S3 Cells
Conditions: BODIPY lipid droplet fluorescence, 18-24 h, cells fed with added oleic acid; lipid storage change, negative = inhibition: at 46.1 µM (top of the series) unless noted
Outline: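 Laser-scanning cytometry quantifies lipid droplet accumulation (500–530 nm total intensity; droplet/cell object ratio) in oleic acid-fed (400 uM added) Drosophila S3 cells treated with a concentration series. 20 uM Triacsin C defined 100% inhibition.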
On the % scale 0 is the no-effect control and ±100 the full control effect; potency means the concentration at half of the fitted maximal effect.

SMILES | lipid storage change, negative = inhibition | Potency
CCc1cccc(C)c1NC(=O)C(c1ccc(O)cc1)N1CCC1=O (centres undefined) | inconclusive: 19.4% | –
CCOC(=O)C1=C(N2CCCCC2)c2cc3c(n2C1=O)CCCC3 | inconclusive: 4.23% | –
CC1C(=O)Nc2ccc(S(=O)(=O)N3CCc4ccccc4C3)cc2NC1=O (centres undefined) | inconclusive: -1.41% | –
CCCCN(C)CCn1c(=S)[nH]c2cc(OCC)c(OCC)cc2c1=O | inactive | –
Cc1ccc(S(=O)(=O)Oc2ccc(/C=C3/C(=N)N4C(=NC3=O)SN=C4S(C)(=O)=O)cc2)cc1 | inactive | –
Cc1cccc(N(CC(=O)NC(C)C)C(=O)CCC(=O)Nc2nccs2)c1 | – | inconclusive: 6.51 µM [activator, single point]
Cc1ccc(C(=O)CCC(=O)N(C)CC(=O)Nc2ccccc2Br)cc1 | – | inconclusive: 14.6 µM [activator, partial curve, poor fit]
Cn1cnc([N+](=O)[O-])c1Sc1nc2ccccc2[nH]1 | – | inconclusive: 29.1 µM [falling, single point]
Cc1c(C(=O)OCC(=O)NCCN2C(=O)CSC2=O)oc2c1ccc1ccccc12 | inconclusive: -32.3% | –
Cc1cccc(OCCNC(=O)c2cccc(Oc3ccc(C(F)(F)F)cc3[N+](=O)[O-])c2)c1 | – | inconclusive: 29.1 µM [falling, single point]
COc1ccc(/C(C)=N/NC(=O)CNC(=O)c2ccco2)cc1 | inconclusive: 183% | –
CCCCOc1cc(C(=O)OCCN(CC)CC)ccc1N | inconclusive: 27.3% | –
O=C(CCNS(=O)(=O)c1ccccc1)NCCCc1ccccc1 | inconclusive | –
COc1ccccc1NC(=O)COc1ccc(/C=N/NC(=O)CSCc2cc(C)cc(C)c2)cc1 | inconclusive: 3.3% | –
COc1cc(C(=O)N=c2sc3c(C)ccc(OC)c3n2C)cc(OC)c1OC | inconclusive: 11.3% | –
COc1ccc(Cl)c(Cn2c(NCC(C)O)nc3c2c(=O)n(C)c(=O)n3C)c1 (centres undefined) | inconclusive: 31.8% | –
CCOC(=O)[C@@H]1[C@H]2COc3ccc(Br)cc3[C@@H]2N2C(=O)N(c3ccc(F)cc3)C(=O)[C@]12C | – | inconclusive: 29.1 µM [rising, partial curve, poor fit]
CCN(CC)C(=O)Cn1cc(S(=O)(=O)CC(=O)Nc2ccc(F)cc2F)c2ccccc21 | inconclusive: 45.5% | –
CC(C)(C)C(=O)NCCN1C(=O)S/C(=C\c2ccc([N+](=O)[O-])cc2)C1=O | – | active: 11.6 µM
COc1ccc(NC(=O)C2CCN(S(=O)(=O)c3cn(C)nc3C)CC2)cc1 | – | inconclusive: 13 µM [activator, partial curve]
Cc1nn(CCC#N)c(C)c1Oc1ccccc1O | – | inconclusive: 0.0046 µM [falling, full curve, poor fit]
COCCCNC(=O)CCC(=O)NNc1nc2ccccc2c2nc(-c3ccccc3)nn12 | inactive | –
CN1C(=O)/C(=C2\SC(=S)N(CC3CCCO3)C2=O)c2ccccc21 (centres undefined) | inconclusive: 19.6% | –
O=C(Nc1ncn[nH]1)c1cc([N+](=O)[O-])ccc1Cl | inconclusive: 29.6% | –
O=C(c1ccc(CS(=O)c2cccc(Cl)c2)o1)N1CCCCCC1 (centres undefined) | inactive | –

Arranged by formula weight (high to low): some entries from above
SMILES | lipid storage change, negative = inhibition | Potency
Cc1ccc(S(=O)(=O)Oc2ccc(/C=C3/C(=N)N4C(=NC3=O)SN=C4S(C)(=O)=O)cc2)cc1 | inactive | –
CCOC(=O)[C@@H]1[C@H]2COc3ccc(Br)cc3[C@@H]2N2C(=O)N(c3ccc(F)cc3)C(=O)[C@]12C | – | inconclusive: 29.1 µM [rising, partial curve, poor fit]
COc1ccccc1NC(=O)COc1ccc(/C=N/NC(=O)CSCc2cc(C)cc(C)c2)cc1 | inconclusive: 3.3% | –
CCN(CC)C(=O)Cn1cc(S(=O)(=O)CC(=O)Nc2ccc(F)cc2F)c2ccccc21 | inconclusive: 45.5% | –
COCCCNC(=O)CCC(=O)NNc1nc2ccccc2c2nc(-c3ccccc3)nn12 | inactive | –
Cc1ccc(C(=O)CCC(=O)N(C)CC(=O)Nc2ccccc2Br)cc1 | – | inconclusive: 14.6 µM [activator, partial curve, poor fit]
COc1ccc(Cl)c(Cn2c(NCC(C)O)nc3c2c(=O)n(C)c(=O)n3C)c1 (centres undefined) | inconclusive: 31.8% | –
COc1cc(C(=O)N=c2sc3c(C)ccc(OC)c3n2C)cc(OC)c1OC | inconclusive: 11.3% | –
CC1C(=O)Nc2ccc(S(=O)(=O)N3CCc4ccccc4C3)cc2NC1=O (centres undefined) | inconclusive: -1.41% | –
O=C(c1ccc(CS(=O)c2cccc(Cl)c2)o1)N1CCCCCC1 (centres undefined) | inactive | –
CN1C(=O)/C(=C2\SC(=S)N(CC3CCCO3)C2=O)c2ccccc21 (centres undefined) | inconclusive: 19.6% | –
O=C(CCNS(=O)(=O)c1ccccc1)NCCCc1ccccc1 | inconclusive | –
CCCCOc1cc(C(=O)OCCN(CC)CC)ccc1N | inconclusive: 27.3% | –
Cc1nn(CCC#N)c(C)c1Oc1ccccc1O | – | inconclusive: 0.0046 µM [falling, full curve, poor fit]

(next part)

SMILES | lipid storage change, negative = inhibition | Potency
CCOc1ccc(Nc2nc(N3CCOCC3)nc(N3CCOCC3)n2)cc1 | – | inconclusive: 10.3 µM [activator, partial curve]
CCOc1cc(Cl)c(S(=O)(=O)NCCCN2CCOCC2)cc1Cl | – | inconclusive: 29.1 µM [activator, partial curve, poor fit]
OCC[C@@H]1C[C@H](O)[C@@H](O)[C@]2(Cc3ccccc3CCO2)O1 | – | inconclusive: 18.4 µM [activator, single point]
CCC(C)Sc1nnc(-c2c[nH]c3ccccc23)n1CCOC (centres undefined) | inconclusive: -46.3% | –
COc1ccc(C2CC(c3ccccc3)Nc3nc(NS(C)(=O)=O)nn32)cc1 (centres undefined) | inconclusive: 2.81% | –
CCOC(=O)COn1c(=O)c(-c2ccc(OCC)cc2)[n+]([O-])c2ccccc21 | inconclusive: 10.1% | –
Cc1ccc(C(=O)n2c(-c3ccccc3)cnc2SCC(=O)Nc2ccc(C)cc2C)cc1 | inconclusive: 24.6% | –
O=C(Nc1ccc(F)c(F)c1)c1ccccc1 | inconclusive: 7.84% | –
O=C(Nc1nc(-c2cccs2)c(C(=O)C(F)(F)F)s1)c1ccco1 | – | inconclusive: 0.651 µM [cytotoxic, full curve]
COc1ccc(CCNC(=O)CSc2n[nH]c(N)n2)cc1 | inconclusive: -55.5% | –
COc1ccc(NC(=O)CCCc2ccccc2)c(OC)c1 | inconclusive: 15.9% | –
O=C(CCSCc1ccc(Cl)cc1)NCCC1=CCCCC1 | inconclusive: 10.2% | –
O=C1Nc2c(Br)cc(Br)c3cccc1c23 | inconclusive: 54% | –
COc1cc(C2C(C#N)=C(N)OC3=C2C(=O)CC(C)(C)C3)c([N+](=O)[O-])cc1OC (centres undefined) | inconclusive: -21.9% | –
CC(C)C(=O)Nc1ccc(NC(=O)c2ccc(COc3ccccc3)cc2)cc1 | – | inconclusive: 16.4 µM [activator, partial curve]
O=C(Cc1ccccc1Cl)Nc1nc2ccccc2[nH]1 | inconclusive: -0.945% | –
COc1cc(C2NC(=O)NC(C)=C2C(=O)OCC2CCCCC2)cc(Cl)c1O (centres undefined) | – | inconclusive: 0.82 µM [falling, full curve]
CCC(=O)NC(Nc1sc2c(c1C(=O)OC)CCCC2)(C(F)(F)F)C(F)(F)F | inconclusive: -18.6% | –
Cc1ccc2c(c1)C(=O)OC1(O)C3C4C=CC(C4)C3C(=O)N21 (centres undefined) | inconclusive: -13.3% | –
Cc1occc1C(=O)NCCCCNC(=O)c1ccoc1C | inconclusive: -2.27% | –
O=C(COc1ccc2ccccc2c1)NNC(=O)Cc1cccc2ccccc12 | inconclusive: 7.46% | –
O=C(/C=C/c1c(Cl)nc2ccccn12)N1CCN(c2ccc(F)cc2)CC1 | inconclusive: 50.1% | –
CC(=O)Nc1ccc(S(=O)(=O)Oc2ccc(C(=S)N3CCCCC3)cc2)cc1 | inconclusive: 9.53% | –
CCc1cc2cccc(C)c2nc1SCC(=O)c1ccc(NC(C)=O)cc1 | – | inconclusive: 1.46 µM [activator, partial curve]
